Source: patent US20120164159A1 (OPSONA THERAPEUTICS, published 2012)
These are yes or no findings as the source states them, for the method shown. Binding calls can cover weak binding; strength is not graded here.

Columns and labels:
[1] = target: rat Toll-like Receptor 2 expressed on rat alveolar macrophages (NR8383) (rat); experiment: flow cytometry on NR8383 cells, RPE anti-human IgG4
[2] = target: porcine Toll-like Receptor 2 expressed on porcine PBMCs (pig); experiment: flow cytometry on pig PBMCs, RPE anti-human IgG4
[3] = target: porcine Toll-like Receptor 2 expressed on porcine PBMCs (pig); experiment: flow cytometry on pig PBMCs, PE anti-human IgG4
[4] = target: rat Toll-like Receptor 2 expressed on rat alveolar macrophages (NR8383) (rat); experiment: flow cytometry on NR8383 cells, anti-human IgG4 PE

Measured: binding

B1: OPN-305 fully humanised anti-Toll-like Receptor 2 monoclonal antibody (antibody, human IgG4 S228P, kappa, V domains shown)
VH: QVQLVQSGSELKKPGASVKLSCKASGFTFTTYGINWVRQAPGQGLEWIGWIYPRDGSTNFNENFKDRATITVDTSASTAYMELSSLRSEDTAVYFCARLTGGTFLDYWGQGTTVTVSS
VL: DIVLTQSPATLSLSPGERATLSCRASESVEYYGTSLMQWYQQKPGQPPKLLIFGASNVESGVPDRFSGSGSGTDFTLKISRVEAEDVGMYFCQQSRKLPWTFGGGTKVEIKR
notes: made in NS0 cells; also called variant 21
binds: [1] | [2] | [3] | [4]
